# In patent publication EP0526638A1, “REMEDY FOR OBSTRUCTIVE PULMONARY DISEASE” (DAIICHI PHARMACEUTICAL CO., LTD., priority 1990, dated 1991):
# At least one structure is not confirmed: it was looked up by name or label, or the drawing left a doubt.
# Legend:
# [1] = system: patients suffering from bronchial asthma and diffuse panbronchiolitis; assay: clinical conditions (symptoms) of patients, observation period versus dosage period; format: in vivo, human
# lung tissue strips = details: stated under background art, cited from earlier work
# [2] = system: guinea pig trachea strips; details: stated under background art; cited from earlier work
# [3] = oral administration to patients suffering from bronchial asthma and diffuse panbronchiolitis (summary of Examples)
compound,measurement,setting,value
"O=C(O)c1ccc2c(c1)CCC(Cn1ccnc1)C2 (stereo not drawn) [compound A, 6-(1-imidazolylmethyl)-5,6,7,8-tetrahydronaphthalene-2-carboxylic acid]",therapeutic effects on diffuse panbronchiolitis,[1]; administration for 2 weeks,remarkable therapeutic effects
same,physical conditions after the termination of the dosage,"[1]; diffuse panbronchiolitis patient, after administration for 2 weeks",maintained good physical conditions
same,attack frequency,[1]; [3],decrease in attack frequency
same,subjective symptoms,[1]; [3],improvement in subjective symptoms
same,Acetylcholine-induced contractile responses,lung tissue strips; guinea pig lung strips,attenuated significantly
same,histamine-induced contractile responses,lung tissue strips; guinea pig lung strips,attenuated significantly
same,"prostaglandin F2,,-induced contractile responses",lung tissue strips; guinea pig lung strips,attenuated significantly
same,arachidonic acid-induced contractile responeses,lung tissue strips; lung tissue strips,suppresses
same,Acetylcholine-induced contractile responses,[2],attenuated significantly
same,arachidonic acid-induced relaxing responses,[2],suppresses
same,histamine-induced contractile responses,[2],attenuated significantly
same,"prostaglandin F2,,-induced contractile responses",[2],attenuated significantly
